Test results published in PubChem BioAssay AID1259415 (National Center for Advancing Translational Sciences (NCATS), 2018).
Screen size: about 410,000 compounds; about 18,000 (4.4%) were called active. Inconclusive means that the source gave no clear call. Such entries were picked first, then a sample of the others. Cut-off read from the data, not from the text of the source: active = activity change below about -60%; inconclusive = no clear call, values can overlap the other calls; inactive = above about -39%. Where a structure was tested more than once in an assay, its records may differ in their call.

Assay: qHTS Assay for inhibitors of the human cytomegalovirus (HCMV)
Conditions: HFF cells, HCMV-luciferase reporter, 72 h; at 57.5 µM; active compounds read low
Summary of the method: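 Inhibition of viral replication was scored as loss of reporter luminescence in HFFs infected with HCMV-luciferase (MOI 1 PFU/cell) for 72 h; compounds tested at 2 doses, normalized to buffer and Salinomycin controls.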
% is set by controls: 0 for no effect and ±100 for the full control effect.

Row | Compound | activity change, negative = inhibition
1 | Cc1cnnn1-c1ccc([N+](=O)[O-])cc1 | inconclusive: -49.5%
2 | Cc1ccc(NC(=O)Nc2ccnc(-c3cccnc3)n2)cc1 | active: -87.5%
3 | O=C1Nc2ccccc2N(O)N1c1cc(-c2ccc(Cl)cc2)[nH]n1 | inconclusive: -52.7%
4 | CC1=C(C(=O)N2CCCC(C(=O)c3cccc(C(F)(F)F)c3)C2)OCCO1 (stereo not given) | inconclusive: -43.2%
5 | CC(=O)c1c(N2CCOCC2)nc2ccc(Cl)cc2c1-c1ccccc1 | inactive: -24.2%
6 | COc1ccc(C2(Nc3cccc(C(=O)O)c3C)C(=O)c3ccccc3C2=O)cc1 | inactive: 3.05%
7 | O=C(/C=C\c1ccc2c(c1)OCO2)NC1CC(=O)N(c2ccc(Cl)cc2)C1 (stereo not given) | inconclusive: -41.3%
8 | Cc1cccc(CN2[C@@H](C)[C@H](c3ccccc3)Oc3cc(Br)ccc3S2(=O)=O)c1 | inconclusive: -52.9%
9 | COc1ccc(S(=O)(=O)N(CC(=O)NCCC(C)C)c2ccccc2)cc1OC | inconclusive: -48.5%
10 | CC(C)OC(=O)CSc1nc(N)c(C#N)c(-c2cccs2)c1C#N | inconclusive: -58.7%
11 | Cc1ccc(-c2sc(-c3ccccc3)nc2CC(=O)Nc2ccccc2F)cc1 | inconclusive: -40.4%
12 | C=CCn1c(=O)c2ccccc2n2c(SCC(=O)Nc3sc(C(=O)N(CC)CC)c(C)c3C(=O)OCC)nnc12 | inconclusive: -55.2%
13 | CCOC(=O)c1[nH]c(C)c(CCC(=O)NCc2ccc(N(C)C)cc2)c1C | inactive: 6.29%
14 | CC(=O)Nc1ccc(S(=O)(=O)N2CCN(C3CCCCCCC3)CC2)cc1 | inconclusive: -43.8%
15 | CC(=O)c1c(C)nc2ccc(Cl)cn12 | inconclusive: -54.9%
16 | NC(CSCc1cccc(Br)c1)C(=O)O (stereo not given) | active: -65.2%
17 | Cc1csc(NC(=O)c2ccc(C)c(S(=O)(=O)N3CCOCC3)c2)n1 | inconclusive: -46.1%
18 | COc1cccc(NC(=O)C2CCC(CNS(=O)(=O)c3ccc4c(c3)CC(C)N4C(C)=O)CC2)c1 (stereo not given) | inconclusive: 0%
19 | Cc1cc(C)n2nc(CNS(=O)(=O)c3c(F)c(F)c(F)c(F)c3F)nc2n1 | inactive: 0%
20 | Cn1c(CCN2CCN(c3ccccn3)CC2)nc2cc(NC(=O)COc3ccccc3)ccc21 | inconclusive: 0%
21 | CC(C)C[C@H]1CN([C@@H](Cc2ccccc2)CN2CCC[C@@H]2CN2C(=O)C(=O)NC[C@@H]2Cc2ccccc2)C(=O)C(=O)N1CCc1ccccc1 | inconclusive: -45%
22 | COC(=O)Cc1c(C(=O)OC)nnn1-c1ccc(OC(F)(F)F)cc1 | inconclusive: -48.9%

Part of the list above, reformatted.
Row	Compound	activity change, negative = inhibition
3	O=C1Nc2ccccc2N(O)N1c1cc(-c2ccc(Cl)cc2)[nH]n1	inconclusive: -52.7%
8	Cc1cccc(CN2[C@@H](C)[C@H](c3ccccc3)Oc3cc(Br)ccc3S2(=O)=O)c1	inconclusive: -52.9%
11	Cc1ccc(-c2sc(-c3ccccc3)nc2CC(=O)Nc2ccccc2F)cc1	inconclusive: -40.4%
15	CC(=O)c1c(C)nc2ccc(Cl)cn12	inconclusive: -54.9%
19	Cc1cc(C)n2nc(CNS(=O)(=O)c3c(F)c(F)c(F)c(F)c3F)nc2n1	inactive: 0%
21	CC(C)C[C@H]1CN([C@@H](Cc2ccccc2)CN2CCC[C@@H]2CN2C(=O)C(=O)NC[C@@H]2Cc2ccccc2)C(=O)C(=O)N1CCc1ccccc1	inconclusive: -45%

Remaining list, next part:

Row | Compound | activity change, negative = inhibition
23 | Cc1nc(SC2CC(=O)N(c3ccccc3)C2=O)n[nH]1 (stereo not given) | active: -60.2%
24 | O=C(O)c1ccc(N2C(=O)Nc3ccccc3N2O)cc1 | inactive: -9.54%
25 | CCOC(=O)CNC(=O)CSc1nnc(NC(=O)c2ccc(C)cc2)s1 | inactive: -29.1%
26 | Cc1ccc(-c2nc3sc(CCNS(=O)(=O)c4cc(F)ccc4F)c(C)n3n2)cc1 | inconclusive: -58.8%
27 | O=C(O)CCN1CC2([N+](=O)[O-])CC=C(OCCO)C([N+](=O)[O-])(C1)C2 (stereo not given) | inconclusive: -52.2%
28 | COc1cc(C(=O)NC(C)Cc2cccs2)cc(OC)c1OC (stereo not given) | inactive: 34.2%
29 | c1ccc(OCCCn2nnc(-c3cccnc3)n2)cc1 | inconclusive: -49.9%
30 | Cc1ccc(S(=O)(=O)NCCC(=O)Nc2ccncc2)cc1C | inactive: 1.61%
31 | CCOc1ccc(C(=O)NCC(=O)NCCCSc2ccccc2)cc1OCC | inconclusive: -46.1%
32 | CCOC(=O)N1CCN(CCC(=O)Nc2ccc(Br)cc2)CC1 | inconclusive: -51.5%
33 | CCCNCC(O)Cn1c2ccccc2n2c(=O)cc(C)c(C#N)c12 (stereo not given) | active: -60.9%
34 | COC(=O)Cc1ccc(NC(=S)N2CCN(c3ccc(OC)cc3)CC2)cc1 | inactive: 53.5%
35 | CN(C(=O)CSc1nc2ccc(NC(=O)COc3ccc(Cl)cc3)cc2s1)c1ccccc1 | inconclusive: -45.9%
36 | O=C(CNC(=O)c1ccccc1F)OCc1csc(-c2ccccc2)n1 | inactive: 18.4%
37 | O=c1[nH]c(=S)[nH]c(O)c1N=Nc1ccc(SC(F)F)cc1 | active: -61.4%
38 | CCN(CC)C(=O)CSc1nc2c(sc(=S)n2-c2ccccc2OC)c(=O)n1-c1ccccc1 | inconclusive: -41.1%
39 | COc1ccc(-c2cc(C(=O)Nc3c(C)nn(Cc4ccc(Cl)cc4)c3C)no2)cc1 | inconclusive: -52.1%
40 | O=C(O)c1nn(CC(=O)N2CCN(c3ncc(C(F)(F)F)cc3Cl)CC2)c(=O)c2ccccc12 | inconclusive: -50%
41 | O=C(Nc1cc(-c2nc3ccccc3s2)ccc1Cl)c1cc2ccccc2o1 | inactive: 91.1%
42 | C/C=C/C(=O)Nc1cccc(C(F)(F)F)c1 | inconclusive: -54.8%
43 | COc1cccc(CN(C(=O)c2oc3cc(C)ccc3c2C)C2CCS(=O)(=O)C2)c1 (stereo not given) | inactive: 12.2%
44 | CCN(CC)CC(C)CNC(=O)c1cc(-c2ccc(Br)s2)nc2ccccc12 (stereo not given) | inconclusive: -46%

Row | Compound | activity change, negative = inhibition
45 | COc1cc2c(cc1OC)C1(CCCC1)C(N)=C2C#N | inconclusive: -48.1%
46 | COc1ccc(CN2CCCCC2C)cc1OC (stereo not given) | inactive: 13.3%
47 | CCOC(=O)c1ccc(NS(=O)(=O)c2ccc3c(c2)n(C)c(=O)n3C)cc1 | active: -67.2%
48 | CC1CCC(NC(=O)c2ccc3c(c2)N(Cc2cccc(Cl)c2)C(=O)c2ccccc2S3(=O)=O)CC1 (stereo not given) | inconclusive: -58%
49 | CCCCCCn1c(=O)c(C(=O)Nc2cnccn2)c(O)c2ccccc21 | inactive: -38%
50 | Cc1ccc(NC(=O)COC(=O)CNC(=O)c2ccc(Cl)cc2Cl)cc1S(=O)(=O)N1CCOCC1 | active: -100%
51 | Cc1ccc(C(=O)NC(=S)NNC(=O)COc2ccccc2C)cc1 | inactive: 46.4%
52 | Cn1nc(-c2ccc(OCC(=O)N3CCN(Cc4ccccc4)CC3)cc2)c2ccccc2c1=O | inconclusive: -50.9%
53 | CCOc1ccc(S(=O)(=O)Nc2ccncc2)c(C)c1C | inactive: -26.1%
54 | Cc1ccc(S(=O)(=O)Nc2cccnc2)c(C)c1C | inconclusive: -42.9%
55 | CCC(NC(=O)c1cc(COc2ccc(F)cc2Cl)on1)c1ccncc1 (stereo not given) | inconclusive: -54.8%
56 | Cc1nn(C)c2ncc(C(N)=O)c(Oc3ccc(Cl)cc3)c12 | inconclusive: -54.2%
57 | COc1ccc(/C=C/C(=O)NC(CCSC)C(=O)O)cc1 (stereo not given) | inconclusive: -41.1%
58 | Cc1ccc(N(CC(=O)NCCc2ccccc2)C(=O)c2csnn2)cc1 | active: -87.6%
59 | CSC1=C(C#N)C(c2cccc(Br)c2)CC(=O)N1 (stereo not given) | inconclusive: -46.7%
60 | CCC(CC)C(=O)N(C)c1c(C)nc2c(OCc3ccccc3C)cccn12 | inconclusive: -40.8%
61 | COc1ccc(C(=O)N2CCN(Cc3cc(=O)n4nc(-c5ccccc5C)sc4n3)CC2)cc1OC | inactive: 9.43%
62 | CCN1CCN(CCNC(=O)c2ccc(/C=C3\Sc4ccccc4N(Cc4ccccc4F)C3=O)cc2)CC1 | inconclusive: -43.5%
63 | O=S(Cc1ccc(Br)cc1)Cc1nnc(SCc2c(F)cccc2Cl)n1-c1ccccc1 (stereo not given) | inconclusive: -44.2%
64 | O=c1c2cc(NC(=S)N3CCCCCC3)ccc2nc2n1CCCCC2 | inconclusive: -47.8%
65 | CN(Cc1ccccc1)S(=O)(=O)c1ccc(OCC(=O)Nc2cccc([N+](=O)[O-])c2)cc1 | inconclusive: -42.7%
66 | COc1cccc2c1cc1c(=O)n(CC(=O)N3CCN(c4cccc(C)c4)C(C)C3)nc(C)n12 (stereo not given) | inactive: 19.6%

Row | Compound | activity change, negative = inhibition
67 | CCn1c(CC(=O)Nc2ccccc2)nnc1SCc1nc2ccccc2c(=O)[nH]1 | inconclusive: -41.6%
68 | O=S(=O)(Cc1ccc(Cl)cc1)c1ncc(CO)n1Cc1ccccc1 | inconclusive: -52.7%
69 | COC(=O)C1=C(C)N(Cc2ccccc2)C(=NCc2ccc3c(c2)OCO3)N[C@H]1c1ccccc1 | inactive: -3.65%
70 | CCOc1ccc(N(CC(=O)N2CCCCCC2)S(=O)(=O)c2ccc(C)cc2)cc1 | inconclusive: -47.1%
71 | CC[C@]1(O)CC2CN(CCc3c([nH]c4ccccc34)[C@@](C(=O)OC)(c3cc4c(cc3OC)N(C=O)[C@H]3[C@@](O)(C(=O)OC)[C@H](OC(C)=O)[C@]5(CC)C=CCN6CC[C@]43[C@@H]65)C2)C1 (stereo not given in full) | active: -100%
72 | OCCN1CCN(CC(O)COc2ccc3c(c2)OCO3)CC1 (stereo not given) | inconclusive: -48.7%
73 | c1csc(CCNc2ncnc3sc4c(c23)CCC4)c1 | active: -88.9%
74 | COc1ccc(NC(=O)c2sc3nc[nH]c(=O)c3c2C)cc1Cl | inactive: 79.6%
75 | COc1cccc(OC)c1NC(=O)C1CCCN1C(=O)Nc1cccc(Cl)c1 (stereo not given) | inactive: 12.2%
76 | CN1CCN(Cc2cc(=O)n3ccsc3n2)CC1 | active: -88.8%
77 | CCOc1ccc(Nc2nc(N3CCCCC3)nc(N3CCCCC3)n2)cc1 | inconclusive: -49%
78 | COc1ccc(C(=O)NNC(=O)C(=O)N2CCCCC2)cc1OC | inactive: 0.169%
79 | O=C(Nc1nc2ccc(S(=O)(=O)N3CCCC3)cc2s1)c1ccccn1 | inconclusive: -58.1%
80 | O=C1Nc2ccccc2/C1=C/c1cnc(-c2ccccc2)[nH]1 | inactive: 95.6%
81 | COCCCNC(=O)CN(CCc1ccccc1)S(=O)(=O)c1ccc(C)cc1 | inconclusive: -41.4%
82 | CC1=C(C(=O)N(C(C)C)C(C)C)CC(CC(=O)NCCCCc2ccccc2)C(=O)N1CCC1=CCCCC1 (stereo not given) | active: -112%
83 | O=C(NC(=S)NCCC1=CCCCC1)c1cccnc1 | inconclusive: -46.1%
84 | Brc1cc2[nH]cnc2c2ccccc12 | inactive: 21%
85 | CCCn1c2ccccc2c2nnc(SCc3[nH]c(=O)[nH]c3C(=O)CCCCC(=O)OCC)nc21 | inconclusive: -44.5%
